Laboratory results as given in patent US20110033525A1, “Diterpene Glycosides as Natural Solubilizers” (priority 2008, published 2011).
In brackets after ≈: the same amount, converted by molar mass. Like-named read-outs stand apart in the source and are kept apart here. The name of at least one read-out is uncertain. At least one structure is not confirmed: it was looked up by name or label, or the drawing left a doubt.

Columns and labels:
[1] = no solubilizer; from published Material Safety Data Sheets or The Merck Index, 1996; cited from earlier work
[2] = Method: Solubility test methods: A compound with low solubility was selected and weighed into multiple centrifuge tubes. Each experimental tube received a known amount of the solubilizing agent being tested. The control tubes remained only with the compound. The same volume, 1 mL, unless otherwise indicated, of deionized and distilled water was added to each tube. Alternatively, a set percentage of water solutions containing the solubilizer to be tested (e.g., 5% w/v or 10% w/v) were prepared separately. In these cases, the solubilizer-water solutions were added directly to the tubes containing the low-solubility compound. The tubes were then vortexed briefly and then sonicated for 60 min at temperature of 50° C. unless otherwise indicated. After sonication, the tubes were placed on an orbital shaker at a speed of 80 rpm in an incubator set at 25° C. for at least 24 hr. The tubes were then centrifuged at 4000 rpm for 10 min. The supernatant solution was passed through a 0.2 μm or 0.45 μm filter and analyzed for the concentration of the low-solubility compound, and sometimes the solubilizing compound, by HPLC or UV-Vis spectrophotometer.
The system was computer controlled, and the results were analyzed using Empower software. Calibrations curves were constructed using known concentrations of the compounds and were used to quantify the concentrations of the compounds dissolved in solution. A more complete description of the HPLC procedure for some of the diterpene glycosides is found in G. Chou et al., “Quantitative and fingerprint analyses of Chinese sweet tea plant (Rubus suavissimus S. Lee),” J. Agric. Food Chem., vol.
The ratio of peak areas was used to calculate the increase in water solubility in the absence or presence of solubilizers.

Row | SMILES | Solubility in water without solubilizer [1] | Solubility in water with solubilizer ([2]; natural solubilizer (rubusoside) 20% w/v (200 mg in 1 ml)) | Solubility in water with solubilizer ([2]; natural solubilizer (rubusoside) 10% w/v (100 mg in 1 ml)) | Solubility increase factor ([2]; rubusoside 10% w/v vs water without solubilizer)
1 | COC1=C(OC)C(=O)C(C/C=C(\C)CC/C=C(\C)CC/C=C(\C)CC/C=C(\C)CC/C=C(\C)CC/C=C(\C)CC/C=C(\C)CC/C=C(\C)CC/C=C(\C)CCC=C(C)C)=C(C)C1=O [Coenzyme Q10] | 0.1 µg/mL (≈ 0.116 µM) | – | – | –
2 | CC[C@@]1(O)C(=O)OCc2c1cc1n(c2=O)Cc2cc3ccccc3nc2-1 [Camptothecin] | 0.4 µg/mL (≈ 1.15 µM) | 143 µg/mL | – | –
3 | Cc1ccc(-c2cc(C(F)(F)F)nn2-c2ccc(S(N)(=O)=O)cc2)cc1 [Celecoxib, reference compound] | Not soluble | – | – | –
4 | CCC(C)n1ncn(-c2ccc(N3CCN(c4ccc(OCC5COC(Cn6cncn6)(c6ccc(Cl)cc6Cl)O5)cc4)CC3)cc2)c1=O (centres unmarked) [Itraconazole, reference compound] | Not soluble | – | – | –
5 | CCCCC[C@H](O)CC(=O)CCc1ccc(O)c(OC)c1 [6-Gingerol, 6-gingerol] | Not soluble | – | 150 µg/mL | Many
